Here are results for two molecules from patent US11472723B2, “Method for removing heavy metals from an aqueous solution” (NEWSOUTH INNOVATIONS PTY LIMITED, priority 2016, dated 2022).

The series in a line: Ion flotation of arsenic solution in bubble column, As by ICP-MS. On the procedure: An ICP-MS (Perkin Elmer, NexION 300D with Universal cell technology) was used to determine the arsenic, mercury and lead solution concentrations.
In a typical experiment, 0.01 M of the single chain octanoyl-cysteine surfactant was dissolved (with stirring and heating to not more than 65° C.) in a solution of arsenic (HAsO4^2−) 5 ppm containing NaOH 0.1 M (to keep the pH at about 8), which was then made up to 100 ml using Milli-Q water.
Two samples were taken after 30, 60 and 90 minutes and the arsenic concentration of each sample was determined by ICP-MS. The upper outlet foam was also collected in a waste container using an outlet tube. […]

For `CCCCCCCCCCCC(=O)N[C@@H](CS)C(=O)O`, the “foaming in the flotation system (in words)” value is “good foaming character”.

`CCCCCCCCSC[C@H](N)C(=O)O` [S-octyl cysteine, reference compound]: the “foaming in the flotation system (in words)” value was “did not produce sufficient foam”.
